These results are taken from doi:10.1101/2021.04.12.439405 (bioRxiv, 2021).

Substitutions are numbered along the chain they refer to. These are yes or no findings as the source states them, for the method shown.

Test [1] addresses T1, MukB^KRK (K1114E, R1122E and K1125E) (E. coli, UniProt P22523 1-1486, K1114E | R1122E | K1125E).
T1 sequence (looked up): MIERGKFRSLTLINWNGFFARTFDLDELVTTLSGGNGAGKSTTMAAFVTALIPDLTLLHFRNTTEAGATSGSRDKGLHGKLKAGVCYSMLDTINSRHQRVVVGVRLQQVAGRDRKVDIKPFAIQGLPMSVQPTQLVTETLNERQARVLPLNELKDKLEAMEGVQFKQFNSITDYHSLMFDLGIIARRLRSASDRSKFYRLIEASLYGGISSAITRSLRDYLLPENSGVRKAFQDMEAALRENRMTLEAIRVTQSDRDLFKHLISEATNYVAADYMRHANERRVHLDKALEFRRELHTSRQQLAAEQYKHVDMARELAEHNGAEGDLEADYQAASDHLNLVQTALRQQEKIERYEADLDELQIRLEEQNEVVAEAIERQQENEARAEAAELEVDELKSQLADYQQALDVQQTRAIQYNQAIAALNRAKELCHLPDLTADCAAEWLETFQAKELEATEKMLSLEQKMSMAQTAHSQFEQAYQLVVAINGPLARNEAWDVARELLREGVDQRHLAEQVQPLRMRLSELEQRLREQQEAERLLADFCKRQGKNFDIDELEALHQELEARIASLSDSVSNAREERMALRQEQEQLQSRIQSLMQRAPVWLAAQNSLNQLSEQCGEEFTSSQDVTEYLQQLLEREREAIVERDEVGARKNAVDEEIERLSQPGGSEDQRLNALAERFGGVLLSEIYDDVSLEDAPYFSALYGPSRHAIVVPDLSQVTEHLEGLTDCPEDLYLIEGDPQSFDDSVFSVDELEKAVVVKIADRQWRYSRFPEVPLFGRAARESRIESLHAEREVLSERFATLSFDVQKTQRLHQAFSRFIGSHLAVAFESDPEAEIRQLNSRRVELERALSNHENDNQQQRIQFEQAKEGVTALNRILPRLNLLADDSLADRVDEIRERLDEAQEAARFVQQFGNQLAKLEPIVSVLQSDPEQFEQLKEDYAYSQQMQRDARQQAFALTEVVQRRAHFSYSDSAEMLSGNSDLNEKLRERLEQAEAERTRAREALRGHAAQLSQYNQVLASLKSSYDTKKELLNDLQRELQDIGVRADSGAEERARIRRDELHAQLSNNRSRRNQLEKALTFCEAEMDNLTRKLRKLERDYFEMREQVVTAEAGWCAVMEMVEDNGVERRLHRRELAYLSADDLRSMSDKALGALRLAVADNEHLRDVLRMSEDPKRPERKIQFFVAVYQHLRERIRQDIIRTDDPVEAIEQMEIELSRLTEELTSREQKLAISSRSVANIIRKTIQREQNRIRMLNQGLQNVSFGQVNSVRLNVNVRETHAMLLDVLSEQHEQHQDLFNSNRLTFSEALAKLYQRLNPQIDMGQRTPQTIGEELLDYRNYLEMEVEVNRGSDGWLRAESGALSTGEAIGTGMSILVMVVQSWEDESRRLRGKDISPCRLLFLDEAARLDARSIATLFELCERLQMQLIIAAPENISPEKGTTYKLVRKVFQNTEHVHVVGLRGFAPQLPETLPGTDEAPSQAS
In words: co-purification.

For test [2], the target named is T2, MukB^KK (K1114E and K1125E) (E. coli) (UniProt P22523).
T2 sequence: T1 sequence (looked up) with E1122R
Briefly: co-purification.

As to “Acyl Carrier Protein (AcpP), co-purified with MukB proteins (from UniProt P0A6A8 1-78)”, the binding entry in test [1] and in test [2] was “no binding” throughout.
